Source: patent US20200041497
For some assays here: Results from cells or extracts need not show a direct contact. For at least one entry, the source does not settle the construct or the ends of the probe.

How the values were obtained:
[1] = system: alpha-thrombin (Homo sapiens); experiment: binding assay; details: purified native protein, protein details: Cambridge Biosciences, UK, single-stranded DNA
[2] = system: thrombin in human serum (Homo sapiens); experiment: binding assay; details: nanopore translocation in 1:20 human serum, 100 mM KCl, protein in an extract, single-stranded DNA, variant of TBA 15-mer

GGTTGGTGTGGTTGG [TBA 15-mer]: binds ([1]; CITED, solid phase assays).
GGTTGGTGTGGTTGGAGGTCGCCGCCC: binds ([1]; nanopore translocation of lambda-DNA carrier complex, sub-peaks, 100 mM KCl, 10 mM Tris, 1 mM EDTA pH 8, variant of TBA 15-mer); binds ([2]; sub-peak at 0.2, 0.7 or 0.9).
“GGTTGGTGTGGTTGGGGGCGGCGACCTAAGGTGTCGTGCGTAAGTTTTTAA [TBA detection probe ii (51-mer)]”: binds [2].
“GGTTGGTGTGGTTGGTTTTTTTTTGTCTTTTTTTTTTTTCTGTTTTTAAAAACTTACGCACGACACCTT [TBA detection probe iii (69-mer)]”: binds [2].
